# In the supplement of paper PMC4604168 (melanoma cell lines):
# The list shows a part of the results. Many values rest on one well or one pass, so single values are uncertain.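 Imaging used 1,536-well plates; nuclei positive for cleaved PARP by antibody were divided by total DNA-stained nuclei to yield the apoptosis fraction. Doses for screening kept most cells viable, and cell lines differ markedly in resting and induced cleaved-PARP levels.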
# Experiments:
# Experiment in all cases: cleaved PARP positive nuclei fraction relative to DMSO control; melanoma cells; higher = more apoptosis
# Conditions in all cases: library dose: low library concentration; 72 h
# 501Mel = test system: 501Mel
# A101D = test system: A101D
# A2058 = test system: A2058
# C32 = test system: C32
# CBRC008 = test system: CBRC008 (line from a melanoma biopsy)
# CBRC014 = test system: CBRC014 (line from a melanoma biopsy)
# CBRC016 = test system: CBRC016 (line from a melanoma biopsy)
# CBRC017 = test system: CBRC017 (line from a melanoma biopsy)
# COLO792 = test system: COLO792
# COLO800 = test system: COLO800
# COLO829 = test system: COLO829
# G361 = test system: G361
# IPC-298 = test system: IPC-298
# IST-MEL1 = test system: IST-MEL1
# LB2518-MEL = test system: LB2518-MEL
# LOXIMVI = test system: LOXIMVI
SMILES,cleaved PARP positive nuclei fraction (501Mel),cleaved PARP positive nuclei fraction (A101D),cleaved PARP positive nuclei fraction (A2058),cleaved PARP positive nuclei fraction (C32),cleaved PARP positive nuclei fraction (CBRC008),cleaved PARP positive nuclei fraction (CBRC014),cleaved PARP positive nuclei fraction (CBRC016),cleaved PARP positive nuclei fraction (CBRC017),cleaved PARP positive nuclei fraction (COLO792),cleaved PARP positive nuclei fraction (COLO800),cleaved PARP positive nuclei fraction (COLO829),cleaved PARP positive nuclei fraction (G361),cleaved PARP positive nuclei fraction (IPC-298),cleaved PARP positive nuclei fraction (IST-MEL1),cleaved PARP positive nuclei fraction (LB2518-MEL),cleaved PARP positive nuclei fraction (LOXIMVI)
"NC(=O)c1ccc(N(C(N)=O)c2c(F)cccc2F)nc1-c1ccc(F)cc1F + Cn1cc(/C=C2\C(=O)Nc3cccnc32)c2ccccc21 [GW441756] (first compound 0.4 µM, partner dose 0.4 µM)",45.9%,42.2%,22.6%,40.3%,93.7%,82.4%,52.5%,105%,161%,80.2%,52.2%,162%,30.4%,102%,72.1%,181%
"NC1(c2ccc(-c3nc4ccn5c(=O)[nH]nc5c4cc3-c3ccccc3)cc2)CCC1 + CCc1ccc(CCOc2ccc(CC3SC(=O)NC3=O)cc2)nc1 [pioglitazone] (first compound 0.4 µM, partner dose 2 µM)",76.2%,29.1%,108%,87.7%,146%,85%,42.1%,93.2%,191%,234%,118%,168%,80.2%,39.2%,175%,19.7%
"CS(=O)(=O)c1ccc(C(=O)Nc2ccc(Cl)c(-c3ccccn3)c2)c(Cl)c1 [vismodegib] + CCCCCCCCCCCC1=C(O)C(=O)C=C(O)C1=O [Embelin] (first compound 1 µM, partner dose 1.2 µM)",84.5%,17.2%,55.7%,98.3%,168%,679%,43.5%,93%,34.1%,126%,96.6%,95.1%,124%,74.2%,188%,93.8%
"C[C@]1(O)C[C@@H](c2nc(-c3ccc4ccc(-c5ccccc5)nc4c3)c3c(N)nccn32)C1 + O=c1cc(-c2cccc3c2Sc2ccccc2S3)oc(N2CCOCC2)c1 [KU55933] (first compound 0.4 µM, partner dose 1 µM)",82.5%,34.8%,68.4%,126%,202%,98.5%,82%,92.7%,148%,75.8%,62.7%,165%,94.4%,71.4%,203%,60.1%
"CC(=O)O[C@@]12CO[C@@H]1C[C@H](O)[C@@]1(C)C(=O)[C@H](O)C3=C(C)[C@@H](OC(=O)[C@H](O)[C@@H](NC(=O)OC(C)(C)C)c4ccccc4)C[C@@](O)([C@@H](OC(=O)c4ccccc4)[C@H]21)C3(C)C [Docetaxel] + COc1ccc(COc2ccc(Cc3cnc(N)nc3N)cc2OC)cc1 [GW2580] (first compound 0.0001 µM, partner dose 1 µM)",224%,58%,4540%,40.3%,252%,205%,218%,100%,827%,426%,659%,545%,349%,201%,419%,474%
"CN(c1ncccc1CNc1nc(Nc2ccc3c(c2)CC(=O)N3)ncc1C(F)(F)F)S(C)(=O)=O + O=c1cc(-c2cccc3c2Sc2ccccc2S3)oc(N2CCOCC2)c1 [KU55933] (first compound 0.08 µM, partner dose 1 µM)",65.6%,13.5%,117%,924%,463%,79.8%,81.7%,99.5%,117%,44.8%,72.5%,93.4%,144%,51.4%,55.6%,75.8%
"C[C@]1(O)C[C@@H](c2nc(-c3ccc4ccc(-c5ccccc5)nc4c3)c3c(N)nccn32)C1 + CCN(CC)CCCCNc1ncc2cc(-c3cc(OC)cc(OC)c3)c(NC(=O)NC(C)(C)C)nc2n1 [PD173074] (first compound 0.4 µM, partner dose 0.1 µM)",76.3%,14.5%,155%,115%,192%,91.8%,95.2%,90.7%,76.6%,125%,36.8%,62.2%,48%,53.5%,83.4%,53.7%
"CN(c1ncccc1CNc1nc(Nc2ccc3c(c2)CC(=O)N3)ncc1C(F)(F)F)S(C)(=O)=O + COC(=O)c1sccc1S(=O)(=O)Nc1ccc(Nc2ccccc2)cc1OC [GSK0660] (first compound 0.08 µM, partner dose 1 µM)",35.4%,26.2%,101%,322%,61.9%,93.8%,106%,99.7%,219%,169%,77.6%,34.4%,63.8%,122%,75.9%,182%
"CS(=O)(=O)c1ccc(C(=O)Nc2ccc(Cl)c(-c3ccccn3)c2)c(Cl)c1 [vismodegib] + Cc1cc([N+](=O)[O-])ccc1NS(=O)(=O)c1cc(Cl)ccc1Cl [FH535] (first compound 1 µM, partner dose 1 µM)",36.7%,19.6%,88.5%,182%,342%,166%,435%,134%,105%,171%,79.2%,110%,51.2%,156%,71.1%,106%
"CC(=O)O[C@@]12CO[C@@H]1C[C@H](O)[C@@]1(C)C(=O)[C@H](O)C3=C(C)[C@@H](OC(=O)[C@H](O)[C@@H](NC(=O)OC(C)(C)C)c4ccccc4)C[C@@](O)([C@@H](OC(=O)c4ccccc4)[C@H]21)C3(C)C [Docetaxel] + COc1ccc2c(c1)CCC1C2CCC2(C)C(NCCCCCCN3C(=O)C=CC3=O)CCC12 [U73122] (first compound 0.0001 µM, partner dose 0.4 µM)",43.2%,45.4%,3120%,45.7%,244%,183%,168%,163%,338%,490%,218%,375%,200%,137%,339%,110%
"C[C@]1(O)C[C@@H](c2nc(-c3ccc4ccc(-c5ccccc5)nc4c3)c3c(N)nccn32)C1 + Oc1cc(-c2nc(-c3ccccc3)[nH]c2-c2ccncc2)ccc1Cl [L779450] (first compound 0.4 µM, partner dose 0.2 µM)",69.7%,6.05%,76.9%,79.6%,94.4%,222%,27.8%,90.9%,45.6%,75.4%,32%,99.9%,60%,55.4%,93.6%,59.9%
"COc1ccc(C2=N[C@@H](c3ccc(Cl)cc3)[C@@H](c3ccc(Cl)cc3)N2C(=O)N2CCNC(=O)C2)c(OC(C)C)c1 [Nutlin-3] + CCc1ccc(CCOc2ccc(CC3SC(=O)NC3=O)cc2)nc1 [pioglitazone] (first compound 0.1 µM, partner dose 2 µM)",178%,48.7%,39.3%,289%,135%,108%,38.9%,140%,30.7%,154%,67.4%,54.1%,93.1%,174%,139%,103%
"Cn1cnc2c(F)c(Nc3ccc(Br)cc3Cl)c(C(=O)NOCCO)cc21 [selumetinib] + Oc1cc(-c2nc(-c3ccccc3)[nH]c2-c2ccncc2)ccc1Cl [L779450] (first compound 0.015 µM, partner dose 0.2 µM)",95.8%,80.3%,67.8%,116%,156%,94.8%,60.3%,97.5%,90.2%,183%,158%,288%,141%,173%,86.3%,91%
"CS(=O)(=O)c1ccc(C(=O)Nc2ccc(Cl)c(-c3ccccn3)c2)c(Cl)c1 [vismodegib] + Cn1cc(/C=C2\C(=O)Nc3cccnc32)c2ccccc21 [GW441756] (first compound 1 µM, partner dose 0.4 µM)",76%,73.2%,75.4%,138%,44.4%,81.3%,68.5%,90.9%,86.8%,33.5%,118%,110%,265%,40.3%,122%,15.2%
"NC1(c2ccc(-c3nc4ccn5c(=O)[nH]nc5c4cc3-c3ccccc3)cc2)CCC1 + COc1ccc2c(c1)CCC1C2CCC2(C)C(NCCCCCCN3C(=O)C=CC3=O)CCC12 [U73122] (first compound 0.4 µM, partner dose 0.4 µM)",83.2%,61.4%,225%,112%,154%,108%,97.3%,239%,97.3%,53.4%,62%,148%,154%,130%,85.7%,191%
"CCCCCCCCc1ccc(CCC(N)(CO)CO)cc1 [fingolimod] + N#Cc1c(O)c2c(-c3ccc(-c4ccccc4O)cc3)csc2[nH]c1=O [A769662] (first compound 2 µM, partner dose 2 µM)",185%,54.9%,98%,178%,58.7%,210%,16.4%,219%,62%,60.1%,135%,120%,48.3%,90.2%,73.7%,146%
"CN(c1ncccc1CNc1nc(Nc2ccc3c(c2)CC(=O)N3)ncc1C(F)(F)F)S(C)(=O)=O + CCN(CC)CCCCNc1ncc2cc(-c3cc(OC)cc(OC)c3)c(NC(=O)NC(C)(C)C)nc2n1 [PD173074] (first compound 0.08 µM, partner dose 0.1 µM)",121%,30.6%,51.9%,85.9%,115%,95%,41%,68%,100%,162%,140%,140%,62.9%,181%,49.4%,176%
"NC1(c2ccc(-c3nc4ccn5c(=O)[nH]nc5c4cc3-c3ccccc3)cc2)CCC1 + Oc1cc(-c2nc(-c3ccccc3)[nH]c2-c2ccncc2)ccc1Cl [L779450] (first compound 0.4 µM, partner dose 0.2 µM)",143%,31.3%,105%,163%,58.4%,107%,120%,86.6%,15.7%,118%,76.4%,91.7%,105%,134%,101%,41.1%

# Single values from the entries so far.
# For cleaved PARP positive nuclei fraction (501Mel), CN(c1ncccc1CNc1nc(Nc2ccc3c(c2)CC(=O)N3)ncc1C(F)(F)F)S(C)(=O)=O + O=c1cc(-c2cccc3c2Sc2ccccc2S3)oc(N2CCOCC2)c1 [KU55933] (first compound 0.08 µM, partner dose 1 µM) is entered as 65.6%
# For cleaved PARP positive nuclei fraction (CBRC016), NC1(c2ccc(-c3nc4ccn5c(=O)[nH]nc5c4cc3-c3ccccc3)cc2)CCC1 + Oc1cc(-c2nc(-c3ccccc3)[nH]c2-c2ccncc2)ccc1Cl [L779450] (first compound 0.4 µM, partner dose 0.2 µM) is entered as 120%
